Results are given in words; binding and its absence hold for the method and conditions named. Binding seen in cells or lysates may run through a third protein. Here binding means that the protein was enriched with, or labelled near, the bait; the list need not be complete. No binding means not detected with the bait.
Biological target: SFB-tagged EZH2 (human) (UniProt Q15910)
Test: affinity purification with mass spectrometry

The chains behind the UniProt entries cited, without tags or fusion partners.
UniProt Q15910: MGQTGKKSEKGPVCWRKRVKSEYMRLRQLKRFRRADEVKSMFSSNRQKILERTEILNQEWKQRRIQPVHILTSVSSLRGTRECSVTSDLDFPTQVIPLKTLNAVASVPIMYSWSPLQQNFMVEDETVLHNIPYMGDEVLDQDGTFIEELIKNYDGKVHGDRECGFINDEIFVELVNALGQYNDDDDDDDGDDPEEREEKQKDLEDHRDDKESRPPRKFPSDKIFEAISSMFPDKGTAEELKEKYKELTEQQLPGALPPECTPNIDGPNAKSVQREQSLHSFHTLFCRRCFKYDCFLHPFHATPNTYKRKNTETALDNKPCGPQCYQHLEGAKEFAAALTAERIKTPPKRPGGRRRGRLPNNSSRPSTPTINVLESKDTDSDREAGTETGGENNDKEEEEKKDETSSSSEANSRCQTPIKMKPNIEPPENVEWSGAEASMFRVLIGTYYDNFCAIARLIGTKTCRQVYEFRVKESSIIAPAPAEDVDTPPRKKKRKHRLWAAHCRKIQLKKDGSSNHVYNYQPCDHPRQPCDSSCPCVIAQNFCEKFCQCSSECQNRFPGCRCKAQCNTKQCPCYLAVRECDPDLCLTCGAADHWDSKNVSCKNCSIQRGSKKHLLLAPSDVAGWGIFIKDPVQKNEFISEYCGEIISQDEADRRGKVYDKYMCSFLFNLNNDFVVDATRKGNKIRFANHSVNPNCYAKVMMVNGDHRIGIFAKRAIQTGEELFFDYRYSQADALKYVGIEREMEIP
UniProt P06730: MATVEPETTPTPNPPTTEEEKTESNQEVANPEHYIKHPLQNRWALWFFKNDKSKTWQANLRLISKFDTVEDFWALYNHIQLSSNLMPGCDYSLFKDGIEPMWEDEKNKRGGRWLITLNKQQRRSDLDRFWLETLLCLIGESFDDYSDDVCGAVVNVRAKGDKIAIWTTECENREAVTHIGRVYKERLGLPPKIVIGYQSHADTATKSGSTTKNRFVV
UniProt P11940: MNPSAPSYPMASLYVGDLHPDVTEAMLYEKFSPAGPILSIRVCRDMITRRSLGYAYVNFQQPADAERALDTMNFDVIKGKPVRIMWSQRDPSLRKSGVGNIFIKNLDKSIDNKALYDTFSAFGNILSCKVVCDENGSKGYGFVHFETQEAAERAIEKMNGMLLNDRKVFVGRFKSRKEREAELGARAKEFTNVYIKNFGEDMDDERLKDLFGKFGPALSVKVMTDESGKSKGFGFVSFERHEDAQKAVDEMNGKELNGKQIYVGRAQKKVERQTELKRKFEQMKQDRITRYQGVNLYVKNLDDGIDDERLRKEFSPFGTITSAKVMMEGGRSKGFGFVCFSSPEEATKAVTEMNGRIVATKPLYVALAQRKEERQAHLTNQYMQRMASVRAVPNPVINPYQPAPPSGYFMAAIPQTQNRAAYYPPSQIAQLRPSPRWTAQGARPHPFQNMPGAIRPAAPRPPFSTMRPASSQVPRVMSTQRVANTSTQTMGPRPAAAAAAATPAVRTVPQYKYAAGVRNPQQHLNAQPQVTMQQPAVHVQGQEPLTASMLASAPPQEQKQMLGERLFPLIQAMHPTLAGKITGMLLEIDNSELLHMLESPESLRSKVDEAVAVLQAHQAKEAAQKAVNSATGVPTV

Substance	binding
eIF4E (from UniProt P06730 1-217)	no binding
poly(A)-binding protein-1 (from UniProt P11940 1-636)	binds

Reference: doi:10.1101/298737
